For assay [1], the target named is GST-LC3A (human) (UniProt Q9H492). Kind of assay: pull-down; LUMIER binding assay: lysates of 293ET cells expressing luciferase fusions incubated with purified GST-tagged proteins bound to beads; ratio of luciferase activity bound to beads and in lysates; only the target purified.
Assay [2] concerns the target GST-GABARAPL2 (human) (UniProt P60520). The assay is described as above.
The target of assay [3] is GST-GABARAP (human) (UniProt O95166). Described as above.
Assay [4] deals with FITC-labeled NDP52 CLIR peptide (aa 128-141), V136S (human) (UniProt Q13137). Briefly: fluorescence polarisation; fluorescence anisotropy, equilibrium; purified ATG8 orthologs serially diluted and mixed with equal volumes of 100 nM FITC-labeled NDP52 peptides; PheraStar plate reader; both purified.
Assay [5] concerns the target GST-LC3C K32Q/F33H (human) (UniProt Q9BXW4). Briefly: pull-down; LUMIER binding assay: lysates of 293ET cells expressing luciferase fusions incubated with purified GST-tagged proteins bound to beads; ratio of luciferase activity bound to beads and in lysates; only the target purified.
The target of assay [6] is GST-LC3C K32Q/F33H/L64V/F69L (human) (UniProt Q9BXW4). Described as above.
The target in assay [7] is GST-LC3C L64V/F69L (human) (UniProt Q9BXW4). The assay is described as above.
For assay [8], the target named is GST-LC3C (human) (UniProt Q9BXW4). The assay is described as above.

These are yes or no findings as the source states them, for the method shown. For some of these results: In cells and extracts the contact can be indirect. Some results given as binding are weak or reduced against the parent protein; the word gives no strength.

“NDP52 I133W, full length, fused to luciferase (from UniProt Q13137 1-446)”: the binding entry in assay [1], in assay [2] and in assay [3] was “binds” each time.

Consider “LC3A, purified, for fluorescence anisotropy (from UniProt Q9H492 1-121)”, for which the binding entry in assay [4] is “no binding”.

Turning to “p62 (SQSTM1) fused to luciferase (from UniProt Q13501 1-440)”, the binding entry in assay [1], in assay [5], in assay [2], in assay [6], in assay [7] and in assay [8] was “binds” in each case.

(Values after article PMC3510444, “LC3C, Bound Selectively by a Noncanonical LIR Motif in NDP52, Is Required for Antibacterial Autophagy” (Molecular Cell, 2012).)
